± gives the standard deviation of the averaged measurements. Differences between knockout arms are mostly noise.
Test system: MDA-MB-231
Assay: relative cell number vs DMSO control (72 h) (% of DMSO); higher = less growth inhibition (more cells)
Protocol: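 QMAP-Seq: a pool of 5 breast cancer cell lines (ZR-75-1, SKBR3, HCC-38, MDA-MB-231, BT-20), each carrying 12 doxycycline-inducible Cas9 sgRNA perturbations (11 knockouts plus non-targeting sgNT), was treated with compounds for 72 h at four 10-fold doses (10 nM-10 uM or 1 nM-1 uM range). Barcodes were amplified and sequenced, and cell number was interpolated from 293T spike-in standard curves. The result is expressed as % of the median of DMSO wells. Two biological replicates.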

[1] = sgRNA knockout: sgATF3, 1000 nM
[2] = sgRNA knockout: sgATF4, 1000 nM
[3] = sgRNA knockout: sgATF6, 1000 nM
[4] = sgRNA knockout: sgATG7, 1000 nM
[5] = sgRNA knockout: sgERN1, 1000 nM
[6] = sgRNA knockout: sgHSF1, 1000 nM
[7] = sgRNA knockout: sgHSF2, 1000 nM
[8] = sgRNA knockout: sgKEAP1, 100 nM
[9] = sgRNA knockout: sgKEAP1, 1000 nM
[10] = sgRNA knockout: sgNFE2L2, 10 nM
[11] = sgRNA knockout: sgNFE2L2, 100 nM
[12] = sgRNA knockout: sgNFE2L2, 1000 nM
[13] = sgRNA knockout: sgSLC35F2, 10 nM
[14] = sgRNA knockout: sgSLC35F2, 100 nM
[15] = sgRNA knockout: sgSLC35F2, 1000 nM
[16] = sgRNA knockout: sgXBP1, 1000 nM
[17] = sgRNA knockout: sgATF3, 10000 nM
[18] = sgRNA knockout: sgATF4, 10000 nM
[19] = sgRNA knockout: sgATF6, 10000 nM
[20] = sgRNA knockout: sgATG7, 10000 nM
[21] = sgRNA knockout: sgERN1, 10000 nM
[22] = sgRNA knockout: sgHSF1, 10000 nM
[23] = sgRNA knockout: sgHSF2, 10000 nM
[24] = sgRNA knockout: sgKEAP1, 10000 nM
[25] = sgRNA knockout: sgNFE2L2, 10000 nM
[26] = sgRNA knockout: sgSLC35F2, 10000 nM
[27] = sgRNA knockout: sgXBP1, 10000 nM

## CC(C)C[C@H](NC(=O)[C@H](Cc1ccccc1)NC(=O)c1cnccn1)B(O)O [Bortezomib]
sgRNA knockout: sgATF3, 1 nM
  relative cell number: 93.1 ± 16
sgRNA knockout: sgATF3, 10 nM
  relative cell number: 70.2 ± 5.9
sgRNA knockout: sgATF3, 100 nM
  relative cell number: 9.53 ± 7.1
[1]
  relative cell number: 12.1 ± 8.2
sgRNA knockout: sgATF4, 1 nM
  relative cell number: 62.8 ± 15
sgRNA knockout: sgATF4, 10 nM
  relative cell number: 51.4 ± 1.6
sgRNA knockout: sgATF4, 100 nM
  relative cell number: 7.86 ± 0.61
[2]
  relative cell number: 7.74 ± 2.1
sgRNA knockout: sgATF6, 1 nM
  relative cell number: 96.2 ± 15
sgRNA knockout: sgATF6, 10 nM
  relative cell number: 51.9 ± 5.6
sgRNA knockout: sgATF6, 100 nM
  relative cell number: 9.74 ± 0.2
[3]
  relative cell number: 8.41 ± 0.84
sgRNA knockout: sgATG7, 1 nM
  relative cell number: 92.5 ± 2.1
sgRNA knockout: sgATG7, 10 nM
  relative cell number: 53.7 ± 9.9
sgRNA knockout: sgATG7, 100 nM
  relative cell number: 6.21 ± 2.4
[4]
  relative cell number: 9.84 ± 3.1
sgRNA knockout: sgERN1, 1 nM
  relative cell number: 87 ± 8.6
sgRNA knockout: sgERN1, 10 nM
  relative cell number: 46.4 ± 5.7
sgRNA knockout: sgERN1, 100 nM
  relative cell number: 7.8 ± 2.8
[5]
  relative cell number: 10.8 ± 6.3
sgRNA knockout: sgHSF1, 1 nM
  relative cell number: 85.216 ± 0.04
sgRNA knockout: sgHSF1, 10 nM
  relative cell number: 36.6 ± 14
sgRNA knockout: sgHSF1, 100 nM
  relative cell number: 11.2 ± 7.1
[6]
  relative cell number: 12.2 ± 5.3
sgRNA knockout: sgHSF2, 1 nM
  relative cell number: 91.5 ± 2.9
sgRNA knockout: sgHSF2, 10 nM
  relative cell number: 49.4 ± 8.4
sgRNA knockout: sgHSF2, 100 nM
  relative cell number: 7.2 ± 3
[7]
  relative cell number: 14.8 ± 5.3
sgRNA knockout: sgKEAP1, 1 nM
  relative cell number: 84.7 ± 6.6
sgRNA knockout: sgKEAP1, 10 nM
  relative cell number: 52.2 ± 4.1
[8]
  relative cell number: 7.03 ± 0.54
[9]
  relative cell number: 8.25 ± 2
sgRNA knockout: sgNFE2L2, 1 nM
  relative cell number: 114 ± 11
[10]
  relative cell number: 48.3 ± 4.1
[11]
  relative cell number: 7.52 ± 4
[12]
  relative cell number: 6.38 ± 0.78
sgRNA knockout: sgSLC35F2, 1 nM
  relative cell number: 85.3 ± 2.8
[13]
  relative cell number: 62.9 ± 1.8
[14]
  relative cell number: 11.1 ± 5.1
[15]
  relative cell number: 6.25 ± 3.5
sgRNA knockout: sgXBP1, 1 nM
  relative cell number: 95.9 ± 4.9
sgRNA knockout: sgXBP1, 10 nM
  relative cell number: 48 ± 12
sgRNA knockout: sgXBP1, 100 nM
  relative cell number: 9.56 ± 2
[16]
  relative cell number: 10.1 ± 9.1

## CC(C)(C)OC(=O)CN(Cc1ccc(Cl)cc1)Cc1ccc([N+](=O)[O-])s1 [GSK4112]
sgRNA knockout: sgATF3, 10 nM
  relative cell number: 105.07 ± 0.017
sgRNA knockout: sgATF3, 100 nM
  relative cell number: 92.7 ± 1.1
[1]
  relative cell number: 93.6 ± 9.9
[17]
  relative cell number: 101 ± 10
sgRNA knockout: sgATF4, 10 nM
  relative cell number: 97.9 ± 17
sgRNA knockout: sgATF4, 100 nM
  relative cell number: 113 ± 26
[2]
  relative cell number: 112 ± 12
[18]
  relative cell number: 110 ± 38
sgRNA knockout: sgATF6, 10 nM
  relative cell number: 84.9 ± 6.6
sgRNA knockout: sgATF6, 100 nM
  relative cell number: 118 ± 9
[3]
  relative cell number: 105 ± 13
[19]
  relative cell number: 123 ± 6
sgRNA knockout: sgATG7, 10 nM
  relative cell number: 94.9 ± 15
sgRNA knockout: sgATG7, 100 nM
  relative cell number: 106 ± 4.9
[4]
  relative cell number: 96.1 ± 2.5
[20]
  relative cell number: 96.4 ± 4.5
sgRNA knockout: sgERN1, 10 nM
  relative cell number: 89.21 ± 0.79
sgRNA knockout: sgERN1, 100 nM
  relative cell number: 81.7 ± 17
[5]
  relative cell number: 102 ± 17
[21]
  relative cell number: 109 ± 29
sgRNA knockout: sgHSF1, 10 nM
  relative cell number: 101 ± 1.4
sgRNA knockout: sgHSF1, 100 nM
  relative cell number: 94.3 ± 17
[6]
  relative cell number: 92 ± 15
[22]
  relative cell number: 108 ± 14
sgRNA knockout: sgHSF2, 10 nM
  relative cell number: 87.8 ± 3.2
sgRNA knockout: sgHSF2, 100 nM
  relative cell number: 98.2 ± 16
[7]
  relative cell number: 79.3 ± 16
[23]
  relative cell number: 107 ± 1.3
sgRNA knockout: sgKEAP1, 10 nM
  relative cell number: 93.8 ± 12
[8]
  relative cell number: 97 ± 3.8
[9]
  relative cell number: 89.8 ± 12
[24]
  relative cell number: 94.8 ± 9.4
[10]
  relative cell number: 105 ± 20
[11]
  relative cell number: 106 ± 4.7
[12]
  relative cell number: 95.6 ± 25
[25]
  relative cell number: 111 ± 7.2
[13]
  relative cell number: 75.9 ± 9.6
[14]
  relative cell number: 99.3 ± 3.5
[15]
  relative cell number: 89.2 ± 43
[26]
  relative cell number: 96.3 ± 20
sgRNA knockout: sgXBP1, 10 nM
  relative cell number: 101 ± 15
sgRNA knockout: sgXBP1, 100 nM
  relative cell number: 99.9 ± 7.8
[16]
  relative cell number: 97.7 ± 18
[27]
  relative cell number: 118 ± 7

## C[C@]1(O)C[C@@H](c2nc(-c3ccc4ccc(-c5ccccc5)nc4c3)c3c(N)nccn32)C1 [Linsitinib]
sgRNA knockout: sgATF3, 10 nM
  relative cell number: 106 ± 13
sgRNA knockout: sgATF3, 100 nM
  relative cell number: 122 ± 25
[1]
  relative cell number: 84 ± 2.3
[17]
  relative cell number: 68.3 ± 2.5
sgRNA knockout: sgATF4, 10 nM
  relative cell number: 114 ± 20
sgRNA knockout: sgATF4, 100 nM
  relative cell number: 146 ± 22
[2]
  relative cell number: 93.9 ± 26
[18]
  relative cell number: 68.3 ± 25
sgRNA knockout: sgATF6, 10 nM
  relative cell number: 99.9 ± 8
sgRNA knockout: sgATF6, 100 nM
  relative cell number: 91 ± 34
[3]
  relative cell number: 79.8 ± 3.5
[19]
  relative cell number: 54.1 ± 4.2
sgRNA knockout: sgATG7, 10 nM
  relative cell number: 102 ± 20
sgRNA knockout: sgATG7, 100 nM
  relative cell number: 99 ± 5
[4]
  relative cell number: 83.5 ± 11
[20]
  relative cell number: 63.3 ± 4.8
sgRNA knockout: sgERN1, 10 nM
  relative cell number: 89.1 ± 19
sgRNA knockout: sgERN1, 100 nM
  relative cell number: 117 ± 2.4
[5]
  relative cell number: 75.5 ± 13
[21]
  relative cell number: 65.8 ± 13
sgRNA knockout: sgHSF1, 10 nM
  relative cell number: 105 ± 32
sgRNA knockout: sgHSF1, 100 nM
  relative cell number: 132.8 ± 0.53
[6]
  relative cell number: 74.6 ± 0.75
[22]
  relative cell number: 59.7 ± 15
sgRNA knockout: sgHSF2, 10 nM
  relative cell number: 104 ± 17
sgRNA knockout: sgHSF2, 100 nM
  relative cell number: 103 ± 18
[7]
  relative cell number: 89.5 ± 2.2
[23]
  relative cell number: 73.8 ± 10
sgRNA knockout: sgKEAP1, 10 nM
  relative cell number: 101 ± 13
[8]
  relative cell number: 90.6 ± 5.3
[9]
  relative cell number: 76 ± 8.8
[24]
  relative cell number: 78.4 ± 13
[10]
  relative cell number: 115 ± 14
[11]
  relative cell number: 103 ± 12
[12]
  relative cell number: 72.2 ± 26
[25]
  relative cell number: 76.3 ± 11
[13]
  relative cell number: 92.5 ± 2.1
[14]
  relative cell number: 89.7 ± 18
[15]
  relative cell number: 89.2 ± 3.6
[26]
  relative cell number: 52.1 ± 15
sgRNA knockout: sgXBP1, 10 nM
  relative cell number: 101 ± 7
sgRNA knockout: sgXBP1, 100 nM
  relative cell number: 97 ± 25
[16]
  relative cell number: 88.3 ± 22
[27]
  relative cell number: 56.9 ± 1
